Bridge positions count the residues as written; N and C are the ends. Square brackets hold non-standard residues; d marks the D form. * marks the point of attachment. 2Nal = N[C@@H](Cc1ccc2ccccc2c1)C(=O)O; Lys(iPr) = CC(C)NCCCC[C@H](N)C(=O)O; hCys = N[C@@H](CCS)C(=O)O; Bz = O=C(c1ccccc1)*; Mpa = O=C(O)CCS
Columns and labels:
[1] = general procedure: Fmoc solid-phase peptide synthesis; Rink AM resin; DCC/HOBt; details: whole synthesis, Analytical HPLC, scale of the general procedure 3.6 grams of Rink AM resin, 4.0 grams of 2-chlorotrityl chlo, acetate salt
[2] = general procedure: Fmoc solid-phase peptide synthesis; 2-chlorotrityl chloride resin; DCC/HOBt; details: whole synthesis, Analytical HPLC, scale of the general procedure 3.6 grams of Rink AM resin, 4.0 grams of 2-chlorotrityl chlo, acetate salt
[3] = general procedure: Fmoc solid-phase peptide synthesis; 2-Chloro-trityl chloride resin; DCC/HOBt; details: whole synthesis, Analytical HPLC, scale of the general procedure 3.6 grams of Rink AM resin, 4.0 grams of 2-chlorotrityl chlo, acetate salt
[4] = general procedure: Fmoc solid-phase peptide synthesis; Rink AM resin; 2-chlorotrityl chloride resin (0.4 mmole/gram) for Examples 6 and 7; DCC/HOBt; details: whole synthesis, Analytical HPLC, scale of the general procedure 3.6 grams of Rink AM resin, 4.0 grams of 2-chlorotrityl chlo, acetate salt (from TFA salt)

Substance: Phenylacetyl-cyclo[hCys-Tyr-Lys(iPr)-(D-Arg)-2Nal-Gly-Cys]-Lys(iPr)-Gly-NH2
- final HPLC purity [1]: 95.67%

Substance: Bz-[hCys]Y[Lys(iPr)][dR][2Nal]GC[Lys(iPr)]G-NH2 (disulfide 1-7)
- final HPLC purity [1]: 95.98%

Substance: cyclo[Mpa-Tyr-Lys(iPr)-(D-Arg)-2Nal-Gly-Cys]-Lys(iPr)-Lys(palmitoyl)-NH(Et)
- final HPLC purity [2]: 95.31%

Substance: Benzoyl-cyclo[hCys-Tyr-Lys(iPr)-(D-Arg)-2Nal-Gly-Cys]-Lys(iPr)-Gly-NH(Et)
- final HPLC purity [3]: 97.59%

Substance: Bz-CY[Lys(iPr)][dR][2Nal]GC[Lys(iPr)]G-NH2 (disulfide 1-7)
- final HPLC purity [1]: 97.04%

Substance: [Mpa]YR[dR][2Nal]GCRG[dF]G-NH2 (disulfide 1-7)
- final HPLC purity [1]: 96.64%
- final HPLC purity [4]: 96.64%

Substance: Bz-CY[Lys(iPr)][dR][2Nal]G[hCys][Lys(iPr)]G-NH2 (disulfide 1-7)
- final HPLC purity [1]: 95.64%

Substance: Ac-cyclo[hCys-Tyr-Lys(iPr)-(D-Arg)-2Nal-Gly-Cys]-Lys(iPr)-Gly-NH(Et)
- final HPLC purity [3]: 95.03%

Substance: cyclo[Mpa-Tyr-Lys(iPr)-(D-Arg)-2Nal-Gly-Cys]-Lys(iPr)-Lys(Ac)-NH(Et)
- final HPLC purity [2]: 95.50%

Substance: cyclo[Mpa-Tyr-Lys(iPr)-(D-Arg)-2Nal-Gly-Cys]-Lys(iPr)-Lys(lauroyl)-NH(Et)
- final HPLC purity [2]: 95.42%
- final HPLC purity [4]: 96.42%

Substance: [Mpa]RYR[2Nal]GCRG[dF]G-NH2 (disulfide 1-7)
- final HPLC purity [1]: 96.05%
- final HPLC purity [4]: 96.05%
